# Screening data, single-dose tests

By UniProt entry, the sequences of proteins in these tests, tags left out. Residues count along the entry.
UniProt P9WPC5, whole entry: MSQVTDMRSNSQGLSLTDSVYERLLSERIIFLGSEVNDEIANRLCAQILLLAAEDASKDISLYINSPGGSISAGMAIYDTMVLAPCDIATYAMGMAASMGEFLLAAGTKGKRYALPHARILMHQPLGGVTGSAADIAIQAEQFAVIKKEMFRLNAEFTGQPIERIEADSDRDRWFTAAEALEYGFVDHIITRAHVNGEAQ
UniProt P9WPC3, whole entry partner: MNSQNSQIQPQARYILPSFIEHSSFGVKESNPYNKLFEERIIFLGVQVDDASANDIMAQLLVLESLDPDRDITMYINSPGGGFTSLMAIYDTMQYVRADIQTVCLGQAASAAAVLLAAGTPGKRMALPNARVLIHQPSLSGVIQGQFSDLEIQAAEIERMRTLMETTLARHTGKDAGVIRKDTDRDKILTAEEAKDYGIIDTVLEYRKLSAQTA
UniProt Q4DA54, 1-478: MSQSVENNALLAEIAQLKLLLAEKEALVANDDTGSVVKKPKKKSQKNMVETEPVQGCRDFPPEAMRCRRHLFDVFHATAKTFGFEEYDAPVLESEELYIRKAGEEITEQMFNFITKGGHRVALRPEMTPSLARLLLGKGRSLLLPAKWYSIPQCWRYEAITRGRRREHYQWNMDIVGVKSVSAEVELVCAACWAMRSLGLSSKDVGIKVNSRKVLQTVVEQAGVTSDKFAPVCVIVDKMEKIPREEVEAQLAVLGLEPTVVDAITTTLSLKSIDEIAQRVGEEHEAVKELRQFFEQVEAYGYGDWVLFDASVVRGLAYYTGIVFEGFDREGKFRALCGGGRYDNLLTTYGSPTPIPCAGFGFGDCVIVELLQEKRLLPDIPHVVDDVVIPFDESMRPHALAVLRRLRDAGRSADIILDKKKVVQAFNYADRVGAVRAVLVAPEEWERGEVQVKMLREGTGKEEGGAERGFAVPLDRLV
UniProt Q8IDJ8, 1-583: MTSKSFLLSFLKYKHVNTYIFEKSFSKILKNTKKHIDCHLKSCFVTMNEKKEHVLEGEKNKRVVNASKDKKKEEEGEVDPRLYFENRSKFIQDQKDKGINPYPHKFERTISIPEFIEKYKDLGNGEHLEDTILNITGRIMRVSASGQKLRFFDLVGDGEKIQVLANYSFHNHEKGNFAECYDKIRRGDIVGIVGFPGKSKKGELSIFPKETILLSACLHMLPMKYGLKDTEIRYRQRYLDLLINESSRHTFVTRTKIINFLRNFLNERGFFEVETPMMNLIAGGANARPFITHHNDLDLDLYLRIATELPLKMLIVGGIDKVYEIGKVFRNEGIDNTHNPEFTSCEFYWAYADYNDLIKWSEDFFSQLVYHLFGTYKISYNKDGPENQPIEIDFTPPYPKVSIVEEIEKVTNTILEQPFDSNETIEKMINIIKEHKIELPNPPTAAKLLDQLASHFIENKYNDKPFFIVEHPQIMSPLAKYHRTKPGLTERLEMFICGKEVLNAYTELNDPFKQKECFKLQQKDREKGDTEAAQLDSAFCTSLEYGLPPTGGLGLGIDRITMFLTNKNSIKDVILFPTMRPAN
UniProt I6X8D2, whole entry: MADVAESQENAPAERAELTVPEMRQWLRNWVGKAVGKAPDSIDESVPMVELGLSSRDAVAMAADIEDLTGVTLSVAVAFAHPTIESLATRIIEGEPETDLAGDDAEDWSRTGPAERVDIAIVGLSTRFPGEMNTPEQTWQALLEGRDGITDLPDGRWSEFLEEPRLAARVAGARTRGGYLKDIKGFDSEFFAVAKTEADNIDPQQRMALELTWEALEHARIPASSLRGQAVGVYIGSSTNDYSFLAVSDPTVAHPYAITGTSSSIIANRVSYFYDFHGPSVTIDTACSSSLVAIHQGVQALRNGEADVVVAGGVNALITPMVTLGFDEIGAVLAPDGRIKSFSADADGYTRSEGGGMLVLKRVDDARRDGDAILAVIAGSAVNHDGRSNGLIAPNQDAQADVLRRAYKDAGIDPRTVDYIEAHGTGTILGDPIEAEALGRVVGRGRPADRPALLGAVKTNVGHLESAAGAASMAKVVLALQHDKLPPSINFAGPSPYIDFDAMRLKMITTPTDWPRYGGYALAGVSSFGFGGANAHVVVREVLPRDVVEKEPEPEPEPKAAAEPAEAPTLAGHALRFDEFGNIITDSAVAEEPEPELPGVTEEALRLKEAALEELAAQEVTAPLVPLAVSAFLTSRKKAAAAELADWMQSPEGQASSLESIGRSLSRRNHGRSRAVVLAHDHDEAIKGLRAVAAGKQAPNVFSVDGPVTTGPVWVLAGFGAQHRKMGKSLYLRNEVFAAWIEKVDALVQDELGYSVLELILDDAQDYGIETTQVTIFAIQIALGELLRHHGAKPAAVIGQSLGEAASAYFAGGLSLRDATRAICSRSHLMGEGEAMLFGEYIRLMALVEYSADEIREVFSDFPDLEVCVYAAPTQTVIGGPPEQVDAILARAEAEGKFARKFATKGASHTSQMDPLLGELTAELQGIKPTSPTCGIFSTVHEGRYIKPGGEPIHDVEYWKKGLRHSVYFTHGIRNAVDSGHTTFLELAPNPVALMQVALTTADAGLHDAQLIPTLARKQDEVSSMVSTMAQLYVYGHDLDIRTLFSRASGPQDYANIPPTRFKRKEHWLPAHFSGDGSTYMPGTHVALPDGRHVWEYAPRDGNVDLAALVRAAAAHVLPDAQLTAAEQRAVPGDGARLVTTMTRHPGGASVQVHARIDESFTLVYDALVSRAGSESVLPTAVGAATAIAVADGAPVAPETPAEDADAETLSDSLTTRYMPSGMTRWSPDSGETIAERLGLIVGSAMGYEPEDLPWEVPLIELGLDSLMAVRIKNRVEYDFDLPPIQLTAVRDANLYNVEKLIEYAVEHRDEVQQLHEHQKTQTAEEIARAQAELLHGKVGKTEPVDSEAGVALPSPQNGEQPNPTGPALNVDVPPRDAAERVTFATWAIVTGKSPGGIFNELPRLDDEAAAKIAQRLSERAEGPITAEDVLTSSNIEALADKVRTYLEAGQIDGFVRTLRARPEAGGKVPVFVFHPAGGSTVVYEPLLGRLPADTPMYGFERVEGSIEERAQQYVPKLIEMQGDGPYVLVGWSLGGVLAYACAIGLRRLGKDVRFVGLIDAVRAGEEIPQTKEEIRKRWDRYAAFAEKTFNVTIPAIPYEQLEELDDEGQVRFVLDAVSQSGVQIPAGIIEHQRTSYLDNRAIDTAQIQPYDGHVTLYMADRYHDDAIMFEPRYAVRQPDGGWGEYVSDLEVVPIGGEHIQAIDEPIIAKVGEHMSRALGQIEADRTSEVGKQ

Source: ChEMBL document CHEMBL3988442, “University of Dundee, Small-Polar-MMV Screening Library” (2021).

ClpP1P2: 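Protease assay of ClpP1P2, read by the AMC dye that it sets free. Target: ClpP1P2, Mycobacterium tuberculosis (UniProt P9WPC5 and UniProt P9WPC3). Compounds at 50 µM. Direction is inferred from only a few compounds that gave an IC50; most scored high, so higher reads as stronger inhibition. Most other retested compounds had strongly negative values. Size under these conditions: about 69,000 compounds, about 10 of them at 50% or above in at least one test.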
TcHisRS: 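Enzyme assay of histidyl-tRNA synthetase; the read-out is not stated. Target: Histidine-tRNA ligase, Trypanosoma cruzi CL Brener (UniProt Q4DA54). Concentration: 30 µM. Higher reads as stronger inhibition (inferred: compounds with an IC50 in retests scored well above the rest). Size under these conditions: about 69,000 compounds, about 31 of them at 50% or above in at least one test.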
PfKRS1: 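Enzyme assay of the cytosolic lysyl-tRNA synthetase in 384-well plates, read by luminescence. Target: Lysine-tRNA ligase, Plasmodium falciparum 3D7 (UniProt Q8IDJ8). Compounds at 30 µM. Higher reads as stronger inhibition, judged from the few compounds that gave an IC50. Of about 69,000 compounds tested this way, about 49 (0.071%) reached 50% or more in at least one test.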
Pks13 thioesterase: 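Polyketide synthase Pks13, Mycobacterium tuberculosis (UniProt I6X8D2). Enzyme assay of the thioesterase domain of polyketide synthase 13; the read-out is not stated. Concentration: 30 µM. Higher reads as stronger inhibition (inferred from which compounds were picked for retests). About 67,000 compounds were tested under these conditions; 0.46% (about 300) showed 50% or more at least once.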

Values are the deposited “Percent Effect”, in %.
The record does not define 0% and 100%; most values in the screen are far below 50% and negative numbers occur (in some assays of this library far below -100).
Compounds were drawn at random from those tested, without regard to their results.

- CCn1cc(CN(C)S(=O)(=O)c2ccccc2)cn1 | ClpP1P2: 6.654%; TcHisRS: 2.609%; PfKRS1: 10.35%; Pks13 thioesterase: -17.91%
- CC[C@@]1(O)CCN(C(=O)c2ccc(-c3cccc(F)c3)cc2)C[C@H]1O | ClpP1P2: 1.646%; TcHisRS: 3.252%; PfKRS1: 11.43%; Pks13 thioesterase: 1.831%
- NCc1ccccc1Sc1ccc(O)cc1 | ClpP1P2: 3.175%; TcHisRS: 8.247%; PfKRS1: 1.898%; Pks13 thioesterase: -1.332%
- Cc1cc(NC(=O)CN2CCOC(Cn3nc(C)cc3C)C2)n(C)n1 (centres undefined) | ClpP1P2: 5.194%; TcHisRS: 0.8403%; PfKRS1: 8.98%; Pks13 thioesterase: -4.273%
- CC(C)c1cc(C(=O)N2C[C@H]3CC[C@@H]2CN(Cc2cccnc2)C3)no1 | ClpP1P2: 6.12%; TcHisRS: 1.948%; PfKRS1: 4.221%; Pks13 thioesterase: -21.47%
- COc1cc(CNCC2CNc3ccnn3C2)ccn1 (centres undefined) | ClpP1P2: -1.334%; TcHisRS: 2.579%; PfKRS1: 0.2204%; Pks13 thioesterase: -11.36%
- CC(CO)(CO)NC(=O)C1CCC(=O)N(Cc2ccc(Cl)cc2)C1 (centres undefined) | ClpP1P2: -18.7%; TcHisRS: 0.4464%; PfKRS1: 10.51%; Pks13 thioesterase: -13.11%
- Cc1nnc(C(C)N2CCN(Cc3noc(C(C)(C)C)n3)CC2)o1 (centres undefined) | ClpP1P2: 3.646%; TcHisRS: 9.091%; PfKRS1: 11.98%; Pks13 thioesterase: 3.166%
- COc1ccc(CN2CCn3c(CNS(C)(=O)=O)nnc3C2)cc1 | ClpP1P2: 0.352%; TcHisRS: 4.972%; PfKRS1: -9.838%; Pks13 thioesterase: -14.3%
- COCCN(C)C(=O)c1nc2c(s1)CCCN2S(C)(=O)=O | ClpP1P2: -6.729%; TcHisRS: 7.65%; PfKRS1: 1.039%; Pks13 thioesterase: 17.3%
- c1cncc(Cc2nnc3n2CCN(CC2CCCNC2)CC3)c1 (centres undefined) | ClpP1P2: -6.973%; TcHisRS: 3.879%; PfKRS1: 1.666%; Pks13 thioesterase: -55.8%
- Cc1ccc(N2CCC(NC(C)c3ccc(C)o3)CC2)nc1 (centres undefined) | ClpP1P2: 0.6602%; TcHisRS: -8.163%; PfKRS1: 2.669%; Pks13 thioesterase: -32.93%
- CCN(CC(=O)N(C)C)C(=O)c1ccc(-c2nc(C)cs2)cc1 | ClpP1P2: -6.007%; TcHisRS: 4.02%; PfKRS1: -3.506%; Pks13 thioesterase: 0.0992%
- CCCN(Cc1cccnc1)C(=O)C1CCN(Cc2ccco2)CC1 | ClpP1P2: -20.16%; TcHisRS: 1.622%; PfKRS1: 1.964%; Pks13 thioesterase: -45.35%
- CN(C)C(CNCc1nc(-c2ccsc2)no1)c1cccs1 (centres undefined) | ClpP1P2: 14.23%; TcHisRS: 0%; PfKRS1: 6.57%; Pks13 thioesterase: -15.44%
- CN(C)CC1(O)CCN(C(=O)c2ccc(-n3cnnc3)cc2Cl)C1 (centres undefined) | ClpP1P2: 9.41%; TcHisRS: 4.459%; PfKRS1: -0.7386%; Pks13 thioesterase: 3.579%
- O=C(Cc1ccsc1)N1C[C@@H]2COC[C@]2(COCc2cccnc2)C1 | ClpP1P2: 8.422%; TcHisRS: 10.75%; PfKRS1: 4.097%; Pks13 thioesterase: -1.475%
- Cc1ccccc1C(=O)N1CCOC(c2ncc(CN(C)C)[nH]2)C1 (centres undefined) | ClpP1P2: -8.491%; TcHisRS: 7.28%; PfKRS1: -0.5957%; Pks13 thioesterase: -6.261%
- NC(=O)Cn1cc(NC(=O)NCCN2CCc3ccccc3C2)cn1 | ClpP1P2: -40.27%; TcHisRS: 7.289%; PfKRS1: -0.149%; Pks13 thioesterase: -15.23%
- O=C1Nc2ccccc2CNC12CCN(CC1CCCC1)CC2 | ClpP1P2: -10.37%; TcHisRS: 6.509%; PfKRS1: 2.031%; Pks13 thioesterase: -27.84%
- CC(C)OCCCNC(=O)C1CC(=O)N(c2n[nH]c3cccc(F)c23)C1 (centres undefined) | ClpP1P2: -2.272%; TcHisRS: -42.69%; PfKRS1: -1.624%; Pks13 thioesterase: -21.15%
- Cc1n[nH]c(C)c1NC(=O)NCc1cc[nH]n1 | ClpP1P2: -0.3233%; TcHisRS: 8.287%; PfKRS1: 6.374%; Pks13 thioesterase: -18.5%
- Cc1cn2c(n1)CCC(NC(=O)c1cc(C(C)C)no1)C2 (centres undefined) | ClpP1P2: 2.784%; TcHisRS: 2.642%; PfKRS1: 5.461%; Pks13 thioesterase: -21.86%
- Clc1cccc(C2CCN(c3ncnc4c3CCNC4)C2)c1 (centres undefined) | ClpP1P2: 8.508%; TcHisRS: 17.44%; PfKRS1: -1.647%; Pks13 thioesterase: -9.437%
- Cc1cc2[nH]c(=O)c(=O)[nH]c2cc1S(=O)(=O)NC1CCCCC1 | ClpP1P2: 8.221%; TcHisRS: 8%; PfKRS1: 4.495%; Pks13 thioesterase: -3.344%
- Cn1cc(CN2CCCC23CCN(Cc2nccn2C)CC3)cn1 | ClpP1P2: -19.25%; TcHisRS: 5.263%; PfKRS1: -4.828%; Pks13 thioesterase: -59.7%
- O=C(NC1CC1)C1=CC2(CCN(CC3CC3)CC2)c2ccccc21 | ClpP1P2: -1.324%; TcHisRS: 5.825%; PfKRS1: 8.048%; Pks13 thioesterase: -24.11%

The first 2 entries again:

Result for CCn1cc(CN(C)S(=O)(=O)c2ccccc2)cn1 was ClpP1P2: 6.654%; TcHisRS: 2.609%; PfKRS1: 10.35%; Pks13 thioesterase: -17.91%.
Result for CC[C@@]1(O)CCN(C(=O)c2ccc(-c3cccc(F)c3)cc2)C[C@H]1O was ClpP1P2: 1.646%; TcHisRS: 3.252%; PfKRS1: 11.43%; Pks13 thioesterase: 1.831%.